Data as given in patent US20160257744A1.
Results are given in words; binding and its absence hold for the method and conditions named. Some binding calls cover weakened binding; strength is not graded here.

By UniProt entry, the sequences of proteins in these tests, tags left out. Residues count along the entry.
UniProt P05113, residues 20-134: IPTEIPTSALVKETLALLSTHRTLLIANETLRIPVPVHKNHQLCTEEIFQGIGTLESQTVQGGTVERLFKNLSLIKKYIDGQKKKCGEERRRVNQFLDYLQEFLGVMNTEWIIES

Biological target: T1, IL5 receptor α (UniProt Q01344)
T1 sequence (looked up): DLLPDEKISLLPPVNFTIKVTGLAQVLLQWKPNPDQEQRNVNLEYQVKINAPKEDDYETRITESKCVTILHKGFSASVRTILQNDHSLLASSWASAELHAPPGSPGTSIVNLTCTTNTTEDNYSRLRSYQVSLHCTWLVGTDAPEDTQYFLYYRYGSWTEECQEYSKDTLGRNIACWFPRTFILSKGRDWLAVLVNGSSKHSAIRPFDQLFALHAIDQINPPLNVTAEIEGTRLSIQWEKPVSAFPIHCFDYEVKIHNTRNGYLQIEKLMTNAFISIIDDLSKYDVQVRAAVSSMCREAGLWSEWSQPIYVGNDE
Test: ELISA: biotinylated IL5 on coated IL5 receptor, streptavidin-HRP [panel B]

binding: binds
Substance: interleukin 5 (IL5) (from UniProt P05113 20-134) (ligand)
